Measured values published in patent US20090191217A1 (published 2009).
Residue numbers refer to the chain shown, from its start. Results are given in words; binding and its absence hold for the method and conditions named. Some entries that bind do so weakly or less than the wild type.

By UniProt entry, the sequences of proteins in these tests, tags left out. Residues count along the entry.
UniProt P14778, residues 18-332: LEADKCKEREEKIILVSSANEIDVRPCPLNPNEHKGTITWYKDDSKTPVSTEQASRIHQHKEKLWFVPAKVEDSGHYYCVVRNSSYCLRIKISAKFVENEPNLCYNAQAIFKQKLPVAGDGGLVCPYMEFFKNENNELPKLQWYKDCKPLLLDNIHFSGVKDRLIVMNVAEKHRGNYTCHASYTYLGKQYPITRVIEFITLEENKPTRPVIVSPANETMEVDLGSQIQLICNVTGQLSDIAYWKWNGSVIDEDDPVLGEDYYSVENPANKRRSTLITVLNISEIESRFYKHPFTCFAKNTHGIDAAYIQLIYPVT

B1: DOM4-130 (protein)
VL: DIQMTQSPSSLSASVGDRVTITCRASQDIYLNLNWYQQKPGKAPKLLIYGTSNLQSGVPSRFSGSGSGTDFTLTISSLQPEDFATYYCQPSFLYPYTFGQGTKVEIRR
B2: DOM4-122 (protein)
VL: DIQMTQSPSSLSASVGDRVTITCRASQNIDRELRWYQQKPGKAPMLLIYHASRLQSGVPSRFSGSGSGTDFTLTISSLQPEDFATYYCQQYANWPLTFGQGTKVEIKR
B3: DOM4-129 (protein)
VL: B2 VL with A92H, N93D, W94F
B4: DOM4-130-3 (other)
VL: B1 VL with N34D, L93Y, Y94F
B5: DOM4-130-46 (other)
VL: B1 VL with N34D, Y49N, G50F, T51G, N53E, L93Y, Y94F
B6: DOM4-122-6 (other)
VL: B2 VL with N28W, D30G, L46F, A92H, N93G
B7: DOM4-129-1 (other)
VL: B2 VL with L46F, S56R, A92H, N93D, W94F

Assays:
[1] = target: recombinant IL-1RI (R&D Systems) (UniProt P14778); assay: supernatant receptor binding assay, ELISA, competition with IL-1β
[2] = target: recombinant IL-1RI (R&D Systems) (UniProt P14778); assay: SPR off-rate screening, BIACORE 3000, IL-1RI coupled to a CM5 chip, dAb supernatant as analyte

| Binder | binding [1] | binding [2] |
| --- | --- | --- |
| B1 | binds | – |
| B2 | binds | – |
| B3 | binds | – |
| B4 | – | binds |
| B5 | – | binds |
| B6 | – | binds |
| B7 | – | binds |
